# In all, about 33,000 sequences were measured (“E-score (-0.5 to 0.5)”: median about -0.0034, highest 2% from about 0.25 on). This is one part of the list.
# Target: T1, Yap3 (UniProt P38749)
# T1 sequence: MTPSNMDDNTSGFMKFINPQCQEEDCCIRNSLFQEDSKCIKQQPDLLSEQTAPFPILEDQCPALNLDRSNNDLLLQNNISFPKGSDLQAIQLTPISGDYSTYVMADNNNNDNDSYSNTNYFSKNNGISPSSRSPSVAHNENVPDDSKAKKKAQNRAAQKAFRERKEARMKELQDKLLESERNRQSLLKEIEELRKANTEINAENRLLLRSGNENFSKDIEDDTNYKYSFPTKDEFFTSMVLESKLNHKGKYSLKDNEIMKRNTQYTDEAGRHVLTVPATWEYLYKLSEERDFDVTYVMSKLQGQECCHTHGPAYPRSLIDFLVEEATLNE
# Assay: PBM E-score (8-mer binding enrichment) (E-score (-0.5 to 0.5)); higher = stronger / more preferred TF binding
# Details: protein concentration: 100 nM; construct: GST-full length
# Outline: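 Bound GST-tagged yeast transcription factors, applied at about 100-200 nM to double-stranded universal all-10-mer Agilent arrays, were detected with fluorescent anti-GST. Scans were normalised with masliner. A modified Wilcoxon-Mann-Whitney statistic, the E-score, was assigned to each ungapped eight-base word pooled with its reverse complement by the Universal PBM Analysis Suite.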
row,Sequence,PBM E-score
1,CTTTTCTA,-0.0208
2,ACGATGAT,-0.0821
3,AGGTGGAT,-0.0747
4,GTTCGGCA,-0.0135
5,CGATCCAG,-0.0469
6,CTTCTAAA,0.0164
7,TAGACTGA,-0.0011
8,CGGTTCAC,-0.209
9,CTAAATTC,0.0265
10,TCCGCACA,0.0236
11,CGTGGCGA,-0.105
12,ATAAAAAA,0.187
13,CACTCCTA,-0.07
14,GGGTACTA,0.112
15,AACGTTAG,0.111
16,ATGAGGTA,0.0828
17,GACTAAGA,0.0159
18,AAGACGTA,0.0429
19,AAGCGGAT,0.0146
20,AGAAGTGC,-0.106
21,AATCAACC,-0.0555
22,AGCAAGCT,-0.244
23,ATTTGAGA,0.158
24,GTGTTCTA,0.174
25,ACGGCGTA,-0.0154

row,Sequence,PBM E-score
1,AAGGAACC,0.0912
2,AAAAGTAT,0.214
3,CTAAGAGC,-0.0549
4,AACCTCGA,0.0325
5,ACGCTGAG,0.0794
6,ACTCACCA,-0.0571
7,TAATGGAA,0.256
8,CGAATCAC,0.111
9,AAGACCCC,-0.191
10,AAAATACC,0.0504
11,AGGGCGAC,-0.093
12,AACCGCGA,0.175
13,GAACATAA,0.134
14,CGTCATAG,-0.0803
15,TCACCGCA,-0.103
16,CCAGCTGG,-0.0138
17,GGGATGAC,-0.00457
18,AACTTGGA,0.00371
19,AAGCCGAC,-0.0657
20,AGGCCCAC,-0.304
21,GAATACGC,0.0947
22,ACCGTCAA,0.0196
23,CGTTCAGC,0.0715
24,CCACCTCC,-0.198
25,ACTTCCGA,0.0743

row,Sequence,PBM E-score
1,GCGAAGAA,-0.0228
2,GTGTCCTA,-0.0481
3,GTGTCTGA,0.114
4,CGGAAGCC,-0.259
5,AGTGGCGA,0.176
6,GCAACATA,0.0566
7,TGACACCA,0.0134
8,ATTCCACG,0.0384
9,AGCGCGTG,-0.0708
10,GCGGAGAC,0.119
11,ATGGCCGA,0.0282
12,GGCGGCAA,0.0366
13,GCCTAAAC,-0.0538
14,CGGCCTGC,-0.257
15,TCGGGTAA,0.00408
16,AGTAGTGC,-0.00418
17,GGAAATCC,0.0434
18,GACGACGA,0.091
19,AAAAACCA,0.174
20,GCGATAAC,0.0383
21,CATGTGAG,-0.0621
22,AAAGTTAC,0.121
23,AGGGGCAT,-0.0626
24,CGGACCAC,-0.103
25,CATTTGTA,0.159

row,Sequence,PBM E-score
1,AGACTGAG,-0.175
2,GGTATTAA,-0.00206
3,CGACCATA,0.0163
4,ATACGTCG,0.0457
5,AGCCCGCT,-0.187
6,AAAGACAT,0.102
7,TACAAATA,0.299
8,ACGGACTG,-0.0873
9,CGCCTGCA,-0.0498
10,CGAACTAA,0.198
11,AACTAGGG,-0.0932
12,ACAAAAAA,0.234
13,CCCGCAAA,0.106
14,AAACAAAA,0.185
15,TACCTAGA,-0.0956
16,CGCGAGAA,-0.118
17,CAGGAAAA,0.131
18,CACTGTCA,0.0577
19,CTCGCCTA,0.0188
20,CCGTATGC,0.0186
21,CAGTTAAA,0.138
22,AGCCCTCG,-0.155
23,TTCTTAAA,-0.055
24,AACAGATG,-0.0111
25,CAGAAGGA,-0.283

row,Sequence,PBM E-score
1,GCGCGACC,0.0585
2,GTCCATGA,-0.224
3,AACCTAAG,0.0818
4,AAGGGTCT,-0.135
5,CTTGGATA,-0.057
6,ACCAGTAG,-0.155
7,ATTGGCGA,0.0133
8,GTTTAGGA,-0.137
9,AGAGCGGA,-0.073
10,AATCACCT,0.135
11,AAACTCTC,-0.0171
12,CGAACCCA,-0.181
13,CATGGTTA,0.104
14,AAGGACTT,-0.36
15,AGCCTCAT,-0.158
16,ATCTCATC,0.156
17,CAAATCCA,0.151
18,CGCCACCG,-0.127
19,AGTGTGAG,-0.00503
20,CTGTACGA,0.0353
21,AACGATAA,0.0431
22,CATTACGA,0.149
23,ATAACCCG,-0.26
24,CCGATTCG,0.211
25,ACGGTCAA,0.0988

row,Sequence,PBM E-score
1,CCTGGGAA,-0.0567
2,CCTGATCA,-0.152
3,CGTCATCC,0.157
4,AAAGGATC,0.0884
5,ACAATGCC,0.0768
6,ATAAAGGG,-0.0519
7,GCCTTGCA,-0.148
8,AGCATCTC,-0.0525
9,CCTCTAAA,0.0577
10,AGGACGTC,0.0293
11,AGCAGAGC,-0.243
12,CACCATCG,-0.299
13,ACCCTCTC,-0.291
14,GACTGTAC,-0.129
15,CTCGCAAA,-0.0493
16,GTCCCTAA,-0.0748
17,GCACAAAA,0.122
18,ATTGCGCG,0.173
19,CATAAGGC,0.09
20,GGAAGCAA,-0.11
21,GACACGGC,0.0159
22,ATCATTTA,0.188
23,AAAGATAT,0.196
24,ACCTAATC,0.245
25,GAAACATC,-0.0874

row,Sequence,PBM E-score
1,GAATGCCC,-0.0828
2,ATGTGGAG,0.0173
3,CACGCCCG,-0.137
4,CCAGATTC,-0.373
5,TCGCAGCA,0.0578
6,GTGATACA,0.142
7,TCGCATAA,0.253
8,CATCCGTC,0.132
9,CGACAATA,0.239
10,AGATTGCC,-0.0847
11,CTCCCAAG,-0.167
12,GTCCTTCA,-0.0904
13,ATGCCTGA,-0.0455
14,ATTAGCCC,0.0454
15,CTCACGTA,0.039
16,ACATACAA,0.106
17,GACCTGCA,-0.105
18,AAGTTTAA,-0.0802
19,AAAGGGTT,-0.0977
20,CGAACGTC,-0.113
21,AATACAGT,0.173
22,AGGTGCTG,-0.146
23,AAAATTAG,0.227
24,AACGAGAC,-0.00753
25,CATACAAA,0.193

row,Sequence,PBM E-score
1,CACTCGGG,-0.0909
2,CCCCAGCG,-0.238
3,TACCCCAA,0.0397
4,AAACCCTG,-0.00746
5,CTCTAATA,0.0435
6,ACCTCGTG,0.0214
7,AACAGCCA,0.0566
8,AAGGGTTC,-0.0876
9,ACTTATTG,0.0515
10,ATTATGTG,0.291
11,ACGACCGG,-0.211
12,AAACTGAA,0.11
13,GGGCCTAA,-0.25
14,CGAGTTCA,0.0033
15,AAGGATAC,-0.0343
16,CCACGATA,0.0477
17,CCTTTACA,-0.0856
18,ACTTCGCC,0.114
19,ATGTCGTC,-0.102
20,ATAGACGG,0.15
21,AGCGAGAG,-0.0362
22,CTGACCAG,-0.195
23,AGTTACGC,-0.115
24,GCCACGAC,-0.041
25,TAACTGTA,0.105

# Copied from the list:
# In PBM E-score, ATGTCGTC is entered as -0.102
# In PBM E-score, GGGCCTAA is entered as -0.25
# In PBM E-score, TACCCCAA is entered as 0.0397
# In PBM E-score, CCTTTACA is entered as -0.0856
# In PBM E-score, AGTTACGC is entered as -0.115
# In PBM E-score, ACCTCGTG is entered as 0.0214
# In PBM E-score, CCCCAGCG is entered as -0.238

# (further entries)

row,Sequence,PBM E-score
1,AGTAGAGG,-0.103
2,CCATGGAA,0.0481
3,GTGTGGAA,0.0389
4,CTCTGTTA,0.0122
5,ATTGGAAC,0.157
6,AATGACCT,-0.103
7,GCACTGTA,0.122
8,CTACATCA,0.129
9,AGGTGATG,-0.0661
10,GAAAGGAA,0.0165
11,TAGTATCA,0.219
12,AGTCCGAC,-0.157
13,AGAACGGA,-0.0208
14,ATGGAGAA,0.0653
15,AGCGTTAC,-0.1
16,GGAAATAC,0.149
17,CTACAGTA,0.105
18,CTGTCAGA,-0.107
19,CCTCGACA,-0.0638

# Source: the supplement of paper PMC3334620
